Source: publication PMC5785501, “Crystal structure of lipid A disaccharide synthase LpxB from Escherichia coli” (Nature Communications, 2018)
Results are given in words; binding and its absence hold for the method and conditions named. Binding seen in cells or lysates may run through a third protein. Some results given as binding are weak or reduced against the parent protein; the word gives no strength. Where a sequence is shown, tags or fusion partners need not be part of it.

Target: T1, 6His-LpxBR201A (co-expressed) (Escherichia coli) (UniProt P10441)
T1 sequence: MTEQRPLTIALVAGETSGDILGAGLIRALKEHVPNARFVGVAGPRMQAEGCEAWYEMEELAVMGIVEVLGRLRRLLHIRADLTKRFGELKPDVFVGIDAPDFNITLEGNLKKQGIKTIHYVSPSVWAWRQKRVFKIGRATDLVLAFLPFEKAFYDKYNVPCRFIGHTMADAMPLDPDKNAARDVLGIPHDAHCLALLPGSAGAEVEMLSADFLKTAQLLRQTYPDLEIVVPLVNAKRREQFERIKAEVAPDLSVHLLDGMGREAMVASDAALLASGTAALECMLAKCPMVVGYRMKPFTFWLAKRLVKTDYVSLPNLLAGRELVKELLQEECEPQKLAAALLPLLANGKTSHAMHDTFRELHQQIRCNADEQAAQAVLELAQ
Assay: pull-down; 6His-LpxBR201A co-expressed with untagged LpxBN316A in E. coli (pRSF-Duet-1), co-purified by the His tag in the presence of 0.2-2% Triton X-100

binding: binds
B1: LpxBN316A (untagged, co-expressed) (enzyme, UniProt P10441 1-382)
chain: MTEQRPLTIALVAGETSGDILGAGLIRALKEHVPNARFVGVAGPRMQAEGCEAWYEMEELAVMGIVEVLGRLRRLLHIRADLTKRFGELKPDVFVGIDAPDFNITLEGNLKKQGIKTIHYVSPSVWAWRQKRVFKIGRATDLVLAFLPFEKAFYDKYNVPCRFIGHTMADAMPLDPDKNAARDVLGIPHDAHCLALLPGSRGAEVEMLSADFLKTAQLLRQTYPDLEIVVPLVNAKRREQFERIKAEVAPDLSVHLLDGMGREAMVASDAALLASGTAALECMLAKCPMVVGYRMKPFTFWLAKRLVKTDYVSLPALLAGRELVKELLQEECEPQKLAAALLPLLANGKTSHAMHDTFRELHQQIRCNADEQAAQAVLELAQ
